The supplement of paper PMC10849652
Some of the results follow.

Protein sequences, listed by entry. Tags and fused reporters are not part of them. Lines headed by an entry give the natural chain unless they say otherwise; changes in a name come on top.
UniProt Q5BKU9: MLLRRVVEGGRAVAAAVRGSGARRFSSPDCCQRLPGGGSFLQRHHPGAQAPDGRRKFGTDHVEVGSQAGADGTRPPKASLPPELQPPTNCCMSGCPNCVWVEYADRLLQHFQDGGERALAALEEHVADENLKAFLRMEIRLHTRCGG
UniProt Q9BRQ3: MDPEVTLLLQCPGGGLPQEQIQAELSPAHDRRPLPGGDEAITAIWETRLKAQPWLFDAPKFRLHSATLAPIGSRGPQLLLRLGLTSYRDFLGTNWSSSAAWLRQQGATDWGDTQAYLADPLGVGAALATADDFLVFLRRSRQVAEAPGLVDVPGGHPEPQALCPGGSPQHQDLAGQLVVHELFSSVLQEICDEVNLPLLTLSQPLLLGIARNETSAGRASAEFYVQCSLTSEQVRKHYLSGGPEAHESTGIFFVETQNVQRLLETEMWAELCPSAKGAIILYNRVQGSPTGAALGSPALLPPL
UniProt Q8N138: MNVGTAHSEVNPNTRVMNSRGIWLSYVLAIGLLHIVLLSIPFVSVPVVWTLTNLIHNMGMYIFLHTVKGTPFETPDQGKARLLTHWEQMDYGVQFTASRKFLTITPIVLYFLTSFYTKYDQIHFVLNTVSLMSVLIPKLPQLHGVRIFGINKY
UniProt Q9UBD5: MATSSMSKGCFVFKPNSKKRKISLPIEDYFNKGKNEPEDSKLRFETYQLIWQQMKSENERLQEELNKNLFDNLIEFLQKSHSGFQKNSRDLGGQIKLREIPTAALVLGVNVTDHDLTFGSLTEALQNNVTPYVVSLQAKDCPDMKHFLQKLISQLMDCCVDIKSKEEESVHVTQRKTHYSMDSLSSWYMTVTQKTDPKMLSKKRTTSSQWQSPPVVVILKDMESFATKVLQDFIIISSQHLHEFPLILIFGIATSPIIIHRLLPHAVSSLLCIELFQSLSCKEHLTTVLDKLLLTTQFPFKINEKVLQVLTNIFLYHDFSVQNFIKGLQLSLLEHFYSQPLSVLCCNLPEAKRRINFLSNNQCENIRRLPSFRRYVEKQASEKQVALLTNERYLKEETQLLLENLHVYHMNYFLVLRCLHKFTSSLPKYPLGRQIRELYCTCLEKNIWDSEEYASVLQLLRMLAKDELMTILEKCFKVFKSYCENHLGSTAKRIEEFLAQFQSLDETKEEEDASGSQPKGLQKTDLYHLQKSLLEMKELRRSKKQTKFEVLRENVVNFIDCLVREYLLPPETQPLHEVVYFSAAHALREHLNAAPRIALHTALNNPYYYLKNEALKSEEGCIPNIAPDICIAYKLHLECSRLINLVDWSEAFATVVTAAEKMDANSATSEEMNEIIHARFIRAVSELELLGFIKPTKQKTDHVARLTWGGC
UniProt Q9UBU9: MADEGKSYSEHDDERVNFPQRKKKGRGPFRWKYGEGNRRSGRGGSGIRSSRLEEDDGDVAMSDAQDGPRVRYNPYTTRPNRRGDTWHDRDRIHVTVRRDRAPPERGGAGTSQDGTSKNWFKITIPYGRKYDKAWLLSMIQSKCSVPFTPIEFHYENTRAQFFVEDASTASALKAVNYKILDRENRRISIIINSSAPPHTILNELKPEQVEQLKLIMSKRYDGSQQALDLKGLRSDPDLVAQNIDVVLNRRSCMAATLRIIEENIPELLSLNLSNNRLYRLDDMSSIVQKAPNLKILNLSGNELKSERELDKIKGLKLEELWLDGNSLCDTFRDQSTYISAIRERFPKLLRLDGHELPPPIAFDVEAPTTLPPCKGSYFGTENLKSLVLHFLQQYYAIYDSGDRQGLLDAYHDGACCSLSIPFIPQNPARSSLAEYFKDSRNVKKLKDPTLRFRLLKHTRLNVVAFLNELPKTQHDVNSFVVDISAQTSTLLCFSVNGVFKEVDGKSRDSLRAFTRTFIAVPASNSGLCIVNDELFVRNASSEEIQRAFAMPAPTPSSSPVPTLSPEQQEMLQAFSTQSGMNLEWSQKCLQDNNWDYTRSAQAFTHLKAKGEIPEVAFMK
UniProt O95848: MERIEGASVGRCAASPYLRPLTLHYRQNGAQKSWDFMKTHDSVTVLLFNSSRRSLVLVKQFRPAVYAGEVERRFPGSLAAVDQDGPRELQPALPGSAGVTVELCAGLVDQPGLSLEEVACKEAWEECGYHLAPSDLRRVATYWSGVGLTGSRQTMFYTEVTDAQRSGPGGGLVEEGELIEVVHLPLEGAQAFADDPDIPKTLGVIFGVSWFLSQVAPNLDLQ
UniProt Q9H4B0: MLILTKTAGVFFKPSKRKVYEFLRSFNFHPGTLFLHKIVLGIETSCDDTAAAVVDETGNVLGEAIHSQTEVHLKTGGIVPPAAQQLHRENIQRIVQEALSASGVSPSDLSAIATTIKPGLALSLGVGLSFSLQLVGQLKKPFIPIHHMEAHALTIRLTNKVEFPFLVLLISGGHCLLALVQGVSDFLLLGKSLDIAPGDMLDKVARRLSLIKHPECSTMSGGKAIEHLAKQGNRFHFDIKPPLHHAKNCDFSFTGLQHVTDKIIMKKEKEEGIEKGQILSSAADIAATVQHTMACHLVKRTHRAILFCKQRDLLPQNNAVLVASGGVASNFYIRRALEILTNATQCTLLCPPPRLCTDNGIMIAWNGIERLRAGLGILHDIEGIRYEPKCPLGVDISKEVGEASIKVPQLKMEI
UniProt P47900: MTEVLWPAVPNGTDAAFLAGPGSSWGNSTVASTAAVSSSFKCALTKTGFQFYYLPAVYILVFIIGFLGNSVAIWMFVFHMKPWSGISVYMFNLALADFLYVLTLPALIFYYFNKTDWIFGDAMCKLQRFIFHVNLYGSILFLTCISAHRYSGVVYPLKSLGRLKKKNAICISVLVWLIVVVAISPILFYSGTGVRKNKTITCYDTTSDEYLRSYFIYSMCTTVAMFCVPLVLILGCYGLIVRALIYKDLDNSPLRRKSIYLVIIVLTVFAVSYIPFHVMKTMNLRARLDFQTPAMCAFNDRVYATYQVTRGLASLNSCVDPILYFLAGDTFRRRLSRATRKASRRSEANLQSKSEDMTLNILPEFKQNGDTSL
UniProt P53370: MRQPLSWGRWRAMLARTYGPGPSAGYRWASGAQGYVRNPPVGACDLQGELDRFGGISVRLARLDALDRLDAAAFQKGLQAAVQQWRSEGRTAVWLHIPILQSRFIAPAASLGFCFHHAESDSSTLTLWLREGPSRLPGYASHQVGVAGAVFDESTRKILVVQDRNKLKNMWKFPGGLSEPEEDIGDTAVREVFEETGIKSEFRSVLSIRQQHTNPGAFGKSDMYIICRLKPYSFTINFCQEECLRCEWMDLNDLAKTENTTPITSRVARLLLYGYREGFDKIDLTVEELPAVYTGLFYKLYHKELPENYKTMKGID
UniProt Q9H6K4: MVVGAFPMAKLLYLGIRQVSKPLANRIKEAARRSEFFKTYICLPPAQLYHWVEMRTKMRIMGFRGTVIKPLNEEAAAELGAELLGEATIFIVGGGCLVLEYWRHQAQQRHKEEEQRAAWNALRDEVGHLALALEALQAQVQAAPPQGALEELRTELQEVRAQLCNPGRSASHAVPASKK
UniProt Q5BJF6: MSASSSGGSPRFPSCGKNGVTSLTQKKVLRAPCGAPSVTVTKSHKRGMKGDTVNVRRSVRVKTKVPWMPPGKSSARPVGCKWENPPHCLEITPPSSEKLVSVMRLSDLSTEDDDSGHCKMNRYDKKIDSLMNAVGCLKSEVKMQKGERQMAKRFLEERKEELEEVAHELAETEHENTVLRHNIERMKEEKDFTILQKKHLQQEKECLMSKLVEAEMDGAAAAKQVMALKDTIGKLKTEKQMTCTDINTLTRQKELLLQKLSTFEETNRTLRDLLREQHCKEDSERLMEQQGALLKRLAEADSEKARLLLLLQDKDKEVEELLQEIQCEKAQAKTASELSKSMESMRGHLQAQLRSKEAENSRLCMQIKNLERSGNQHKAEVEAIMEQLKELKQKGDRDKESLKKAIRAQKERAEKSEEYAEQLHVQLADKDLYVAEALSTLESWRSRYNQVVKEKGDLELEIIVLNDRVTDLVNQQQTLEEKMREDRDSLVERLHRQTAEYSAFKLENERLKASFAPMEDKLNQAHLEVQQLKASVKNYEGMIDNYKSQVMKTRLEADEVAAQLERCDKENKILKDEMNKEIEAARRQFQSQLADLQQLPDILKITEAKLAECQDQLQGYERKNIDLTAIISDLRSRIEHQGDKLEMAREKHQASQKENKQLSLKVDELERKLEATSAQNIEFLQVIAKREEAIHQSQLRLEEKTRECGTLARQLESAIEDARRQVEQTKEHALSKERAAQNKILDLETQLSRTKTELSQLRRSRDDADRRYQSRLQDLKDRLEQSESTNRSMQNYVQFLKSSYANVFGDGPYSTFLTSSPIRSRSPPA
UniProt Q9H4L5: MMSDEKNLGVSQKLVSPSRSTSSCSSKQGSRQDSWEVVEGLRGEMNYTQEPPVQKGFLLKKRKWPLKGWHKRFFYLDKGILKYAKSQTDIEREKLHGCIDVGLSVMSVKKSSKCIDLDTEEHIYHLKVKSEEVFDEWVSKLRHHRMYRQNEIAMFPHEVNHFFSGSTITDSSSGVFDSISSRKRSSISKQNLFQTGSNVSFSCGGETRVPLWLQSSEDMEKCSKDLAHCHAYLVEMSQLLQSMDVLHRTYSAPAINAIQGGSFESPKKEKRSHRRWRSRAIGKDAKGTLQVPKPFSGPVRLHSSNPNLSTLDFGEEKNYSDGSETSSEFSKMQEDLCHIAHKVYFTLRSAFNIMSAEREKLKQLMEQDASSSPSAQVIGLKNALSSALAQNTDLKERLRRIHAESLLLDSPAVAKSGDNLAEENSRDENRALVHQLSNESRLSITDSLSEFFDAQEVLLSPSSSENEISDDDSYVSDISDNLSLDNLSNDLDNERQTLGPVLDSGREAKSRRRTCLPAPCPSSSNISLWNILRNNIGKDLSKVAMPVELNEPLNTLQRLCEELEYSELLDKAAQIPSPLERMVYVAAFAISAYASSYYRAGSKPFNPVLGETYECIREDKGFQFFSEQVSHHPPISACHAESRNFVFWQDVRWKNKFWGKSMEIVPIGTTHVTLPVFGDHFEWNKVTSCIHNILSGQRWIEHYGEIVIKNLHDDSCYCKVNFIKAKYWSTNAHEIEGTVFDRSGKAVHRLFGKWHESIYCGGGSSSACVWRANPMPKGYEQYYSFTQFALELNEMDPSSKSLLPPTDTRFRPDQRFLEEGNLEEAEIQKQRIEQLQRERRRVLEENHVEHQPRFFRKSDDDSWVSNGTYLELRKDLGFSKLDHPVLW
UniProt Q8WV74: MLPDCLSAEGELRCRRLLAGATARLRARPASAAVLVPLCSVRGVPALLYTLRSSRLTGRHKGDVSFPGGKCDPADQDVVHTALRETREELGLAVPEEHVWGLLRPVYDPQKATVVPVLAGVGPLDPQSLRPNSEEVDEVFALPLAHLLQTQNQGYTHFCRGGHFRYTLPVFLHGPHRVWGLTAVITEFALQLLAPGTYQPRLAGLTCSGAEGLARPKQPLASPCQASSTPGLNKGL
UniProt Q99935: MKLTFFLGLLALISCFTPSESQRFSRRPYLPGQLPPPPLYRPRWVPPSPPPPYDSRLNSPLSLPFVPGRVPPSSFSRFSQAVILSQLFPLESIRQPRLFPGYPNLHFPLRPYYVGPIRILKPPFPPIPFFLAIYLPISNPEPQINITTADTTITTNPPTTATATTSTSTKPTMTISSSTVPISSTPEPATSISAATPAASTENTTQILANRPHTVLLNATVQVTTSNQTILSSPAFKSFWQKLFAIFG

What was measured:
Test in all cases: log2 fold change, soluble protein after heating vs DMSO (PISA); higher = thermal stabilisation; K562 cells, 10 uM, 30 min; active = over 0.2 and 3.5 SD of the protein, either way, in both replicates (recomputed)
nilotinib = compound: Cc1cn(-c2cc(NC(=O)c3ccc(C)c(Nc4nccc(-c5cccnc5)n4)c3)cc(C(F)(F)F)c2)cn1 [nilotinib]
Outline: (§1)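 K562 cells at 2×10^6 cells/mL were given 10 μM compound for 30 min. Aliquots then went through 3 min of heating across 48°C-58°C, were pooled, and were extracted in PBS with 0.5% NP-40 at 4°C, and the supernatant after 21,000xg for 90 min was quantified by TMTpro 16plex LC-MS/MS with channel sums equalised. Thermal stability relative to control samples, from duplicates, is given as log2 fold change.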

[1] = compound: Cc1nc(Nc2n[nH]c3c2CN(C(=O)N[C@H](CN(C)C)c2ccccc2)C3(C)C)c2sccc2n1
Outline: as §1

[2] = compound: Cc1ncc(-c2ccnc(Nc3ccc(S(C)(=O)=O)cc3)n2)n1C(C)C
Outline: as §1

mubritinib = compound: FC(F)(F)c1ccc(/C=C/c2nc(COc3ccc(CCCCn4ccnn4)cc3)co2)cc1 [mubritinib]
Outline: as §1

[3] = compound: NC1(c2ccc(-c3nc4ccn5c(=O)[nH]nc5c4cc3-c3ccccc3)cc2)CCC1
Outline: as §1

citarinostat = compound: O=C(CCCCCCNC(=O)c1cnc(N(c2ccccc2)c2ccccc2Cl)nc1)NO [citarinostat]
Outline: as §1

silmitasertib = compound: O=C(O)c1ccc2c(c1)nc(Nc1cccc(Cl)c1)c1ccncc12 [silmitasertib]
Outline: as §1

[4] = compound: c1cc(OCCN2CCCCC2)cc(-c2n[nH]c3ccc(-c4nnc[nH]4)cc23)c1
Outline: as §1

bafetinib = compound: Cc1ccc(NC(=O)c2ccc(CN3CC[C@H](N(C)C)C3)c(C(F)(F)F)c2)cc1Nc1nccc(-c2cncnc2)n1 [bafetinib]
Outline: as §1

dasatinib = compound: Cc1nc(Nc2ncc(C(=O)Nc3c(C)cccc3Cl)s2)cc(N2CCN(CCO)CC2)n1 [dasatinib]
Outline: as §1

[5] = compound: NC(=O)c1cnc(N[C@@H]2CCCC[C@@H]2N)nc1Nc1cccc(-n2nccn2)c1
Outline: as §1

[6] = compound: NCC(=O)Nc1ccc(-n2nc(C(F)(F)F)cc2-c2ccc3c(ccc4ccccc43)c2)cc1
Outline: as §1

tipifarnib = compound: Cn1cncc1[C@@](N)(c1ccc(Cl)cc1)c1ccc2c(c1)c(-c1cccc(Cl)c1)cc(=O)n2C [tipifarnib]
Outline: as §1

[7] = compound: NC(=O)Nc1cc(-c2cccc(F)c2)sc1C(=O)N[C@H]1CCCNC1
Outline: as §1

entinostat = compound: Nc1ccccc1NC(=O)c1ccc(CNC(=O)OCc2cccnc2)cc1 [entinostat]
Outline: as §1

[8] = compound: Cc1cccc(CC(=O)N2CCc3c2ccc(-c2cn(C)c4ncnc(N)c24)c3F)n1
Outline: as §1

[9] = compound: Cn1cc(-c2ccc3nnc(C(F)(F)c4ccc5ncccc5c4)n3n2)cn1
Outline: as §1

vorinostat = compound: O=C(CCCCCCC(=O)Nc1ccccc1)NO [vorinostat]
Outline: as §1

[10] = compound: Cn1cc(-c2ccc3c(c2)CCN3C(=O)Cc2cccc(C(F)(F)F)c2)c2c(N)ncnc21
Outline: as §1

[11] = compound: O=C1NC(=O)C(c2cnc3ccccn23)=C1c1cn2c3c(cc(F)cc13)CN(C(=O)N1CCCCC1)CC2
Outline: as §1

Measured: log2 fold change

OXLD1 (UniProt Q5BKU9)
inactive: nilotinib 0.074 | [1] -0.055 | [2] -0.032 | mubritinib 0.083 | [3] -0.081 | citarinostat -0.036 | silmitasertib -0.028 | [4] -0.169

NUDT22 (UniProt Q9BRQ3)
inactive: bafetinib 0.283 | dasatinib 0.18 | mubritinib 0.703 | [5] -0.068 | [3] 0.054 | [6] -0.07 | silmitasertib 0.232

ORMDL3 (UniProt Q8N138)
inactive: tipifarnib 0.032

Taken from the entries so far (two entries):
NUDT22 (UniProt Q9BRQ3)
inactive: bafetinib 0.283 | dasatinib 0.18 | mubritinib 0.703 | [5] -0.068 | [3] 0.054 | [6] -0.07 | silmitasertib 0.232

ORMDL3 (UniProt Q8N138)
inactive: tipifarnib 0.032

Additional entries follow.

P4HB (UniProt H7BZ94)
inactive: [7] -0.145 | entinostat 0.177

ORC3 (UniProt Q9UBD5)
inactive: [5] 0.067 | citarinostat 0.032 | [4] -0.195

NXF1 (UniProt Q9UBU9)
inactive: [8] -0.138 | nilotinib -0.308 | [1] -0.254 | [2] -0.311 | [9] -0.13 | tipifarnib 0.147 | [5] -0.041 | vorinostat 0.054

NUDT14 (UniProt O95848)
inactive: tipifarnib -0.148

OSGEPL1 (UniProt Q9H4B0)
inactive: [8] 0.123 | dasatinib 0 | [10] 0.13 | tipifarnib -0.174 | [7] 0.042 | [5] 0.138 | [6] 0.215 | entinostat 0.099 | vorinostat 0.095

P2RY1 (UniProt P47900)
inactive: [8] -0.234 | dasatinib 0.025 | tipifarnib 0.09 | mubritinib -0.204 | [5] 0.082 | [3] 0.191 | vorinostat -0.044 | silmitasertib 0.145 | [11] 0.247

OBSCN (UniProt A6NGQ3)
inactive: bafetinib -0.156 | nilotinib -0.397 | [1] -0.017 | [2] 0.05 | [10] -0.201 | [9] 0.192 | tipifarnib 0.355 | [7] -0.118 | [5] 0.065 | entinostat -0.152 | citarinostat -0.009 | [4] -0.041

NUDT6 (UniProt P53370)
active: silmitasertib -0.517
inactive: nilotinib -0.1 | [1] 0.083 | dasatinib -0.005 | [2] 0.08 | [10] 0.426 | [9] 0.05 | tipifarnib -0.022 | mubritinib -0.049 | [3] 0.149 | [6] 0.298 | citarinostat 0.164 | [11] -0.097 | [4] -0.385

OPA3 isoform 2 (UniProt Q9H6K4)
inactive: dasatinib -0.043 | [10] -0.09 | [9] -0.097 | mubritinib 0.072 | [5] -0.013 | [3] -0.065 | [6] -0.039 | silmitasertib -0.043

ODF2 (UniProt Q5BJF6)
inactive: [8] 0.171 | vorinostat 0.28 | [11] 0.314

OSBPL3 (UniProt Q9H4L5)
inactive: nilotinib 0.316 | [1] 0.114 | dasatinib 0.447 | [2] -0.213 | [10] -0.081 | [9] -0.173 | tipifarnib -0.17 | [7] -0.079 | [5] -0.43 | [6] 0.106 | entinostat 0.077 | citarinostat -0.077 | [11] 0.307 | [4] -0.072

NUDT8 (UniProt Q8WV74)
inactive: bafetinib 0.094 | nilotinib 0.01 | [1] -0.054 | dasatinib -0.1 | [2] 0.06 | [10] 0.192 | [9] 0.029 | tipifarnib -0.008 | mubritinib -0.032 | [7] 0.075 | [3] -0.033 | [6] 0.003 | entinostat -0.236 | citarinostat 0.026 | silmitasertib -0.119 | [4] 0.372

OPRPN (UniProt Q99935)
inactive: mubritinib 0.03 | [3] -0.189 | silmitasertib -0.018
